{"source": "PubChem BioAssay (NCATS)", "key": {"[1]": {"assay": "qHTS of pediatric cancer cell lines to identify multiple opportunities for drug repurposing: Confirmatory screen for Saos-2 cells (AID 1347127); also: nearly all actives have a fitted effect of over 60% in size", "details": "Saos-2 osteosarcoma cell viability; series mostly up to 45.9 µM", "in_short": "(§1)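 Cells (500-1,000/well) in growth media were settled 5 h at 37 degrees C, then given compounds for 48 h. Viability was read as CellTiter-Glo luminescence. Primary runs used MIPE at 11 points (0.78 nM-46 µM) and NPC at 8 points (0.59 nM-46 µM); follow-ups used 11 points.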"}, "[2]": {"assay": "qHTS of pediatric cancer cell lines to identify multiple opportunities for drug repurposing: Confirmatory screen for OHS-50 cells (AID 1347128)", "details": "OHS-50 osteosarcoma cells viability", "in_short": "as §1"}, "[3]": {"assay": "qHTS of pediatric cancer cell lines to identify multiple opportunities for drug repurposing: Confirmatory screen for SK-N-SH cells (AID 1347129)", "details": "SK-N-SH neuroblastoma cell viability; series mostly up to 46.1 µM", "in_short": "as §1"}, "[4]": {"system": "Zika virus NS2B-NS3 protease", "assay": "Primary screen GU AMC qHTS for Zika virus inhibitors (AID 1347154)", "details": "Zika NS2B-NS3 unlinked protease, AMC fluorogenic substrate; series mostly up to 54.1 µM", "in_short": "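Unlinked Zika NS2B hydrophilic domain/NS3 protease domain noncovalent complex (25 nM final) in 10 mM Tris-HCl pH 8.0, 0.01% Tween 20, with AMC peptide substrate. Fluorescence (ex 340, em 450 nm) change over 15 min, room temperature; percent inhibition fitted to 4-parameter Hill equation.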"}, "[5]": {"system": "Zika virus NS2B-NS3 protease (unlinked complex)", "assay": "Confirmatory screen GU AMC qHTS for Zika virus inhibitors (AID 1347153)", "details": "Recombinant NS2B-NS3 protease, AMC substrate fluorescence; series mostly up to 57.1 µM", "in_short": "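Compounds were preincubated 15 min at room temperature with 25 nM noncovalent NS2B-NS3 protease at pH 8.0; AMC substrate added at 10 microM and 15-min fluorescence gain (340/450 nm) converted to percent inhibition, fitted 4-parameter.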"}, "[6]": {"assay": "ZIKV-mCherry secondary qHTS for Zika virus inhibitors (AID 1347158)", "details": "Vero cells, ZIKV-mCherry infection imaging, 48-72 h; series mostly up to 49.2 µM", "in_short": "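Read-out is percent infection: mCherry-positive Vero cells (nuclear-proximal intensity >450 RFU, 3 SD above negative controls) counted by high-content imaging of Hoechst-stained, PFA-fixed wells after 48-72 h with ZIKV-mCherry at MOI 1 and compound.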"}, "[7]": {"system": "Zika virus NS2B-NS3 protease (linked construct)", "assay": "Confirmatory screen NINDS AMC qHTS for Zika virus inhibitors (AID 1347152)", "details": "Purified linked NS2B-NS3, AMC substrate fluorescence; series mostly up to 56.6 µM", "in_short": "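Linked NS2B-NS3 protease, 1 nM, in 10 mM Tris-HCl pH 8.0, 0.01% Tween 20; compounds preincubated 15 min at room temperature. Nle-KRR-AMC 10 microM (Km 18.3 µM); 15-min fluorescence change (340/450 nm) fitted to 4-parameter Hill.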"}, "[8]": {"system": "Zika virus NS2B-NS3 protease (unlinked)", "assay": "Optimization of GU AMC qHTS for Zika virus inhibitors: Unlinked NS2B-NS3 protease assay (AID 1347151)", "details": "recombinant ZIKV NS2B-NS3 protease, fluorogenic AMC substrate; series mostly up to 52.5 µM", "in_short": "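Noncovalent NS2B hydrophilic domain–NS3 protease complex (25 nM final) in 10 mM Tris-HCl pH 8.0, 0.01% Tween 20; AMC substrate, room temperature 15 min (~20% conversion); fluorescence change normalized, 4-parameter Hill fit.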"}, "[9]": {"assay": "Confirmatory screen GU Rhodamine qHTS for Zika virus inhibitors qHTS (AID 1347157)", "details": "purified enzyme assay, Rhodamine110 substrate fluorescence, 15 min; series mostly up to 114 µM", "in_short": "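Enzyme 25 nM in Tris-HCl pH 8.0 + 0.01% Tween 20; compounds up to 114 microM, 15 min RT dark; + Rhod110 substrate 1.5 microM; read t0 and 15 min; delta fluorescence → % inhibition → 4-parameter Hill fit.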"}}, "note": "“And” between values parts separate entries of the source, which are not always exact repeats. Equal entries are not always repeated. The shares of active, inactive and inconclusive entries below differ from those in the screen. For some assays here: Where the call is inconclusive, the potency comes from a doubtful curve fit. Where a structure was tested more than once in an assay, its records may differ in their call. The source made the active and inactive calls. Calls follow the shape of the dose curve; as a rule, active = well fitted curve in the direction sought with a large enough effect; inconclusive = small, poorly fitted or top-dose-only effect, or another doubt; inactive = no such curve, though single readings can be large; an effect the other way counts as inactive or inconclusive. Potency is read from the fitted curve at half-maximal effect."}
{"compound": "Nc1nc(OCc2ccccc2)c2[nH]cnc2n1", "values": [{"measurement": "Potency", "setting": "[1]", "value": "inactive"}, {"measurement": "Potency", "setting": "[2]", "value": "inactive"}, {"measurement": "Potency", "setting": "[3]", "value": "inactive"}, {"measurement": "Potency", "setting": "[4]", "value": "inactive"}]}
{"compound": "CC(=O)SCC(Cc1ccccc1)C(=O)NCC(=O)OCc1ccccc1", "note": "(stereo unspecified)", "values": [{"measurement": "Potency", "setting": "[2]", "value": "inactive"}, {"measurement": "Potency", "setting": "[3]", "value": "inactive"}]}
{"compound": "CC1(C)CCC(CN2CCN(c3ccc(C(=O)NS(=O)(=O)c4ccc(NCC5CCOCC5)c([N+](=O)[O-])c4)c(Oc4cnc5[nH]ccc5c4)c3)CC2)=C(c2ccc(Cl)cc2)C1", "values": [{"measurement": "Potency", "setting": "[1]", "value": "inconclusive: 18.5 µM [cytotoxic, single point]"}, {"measurement": "Potency", "setting": "[2]", "value": "inconclusive: 36.9 µM [cytotoxic, single point]"}, {"measurement": "Potency", "setting": "[3]", "value": "inconclusive: 37.2 µM [cytotoxic, single point]"}, {"measurement": "Potency", "setting": "[5]", "value": "active: 8.57 µM and inconclusive: 6.07 µM [inhibitor, full curve]"}, {"measurement": "Potency", "setting": "[4]", "value": "inconclusive: 2.15 µM [inhibitor, full curve]"}, {"measurement": "Potency", "setting": "[6]", "value": "inconclusive: 2.51 µM [inhibitor, full curve]"}]}
{"compound": "CC[C@@]1(O)C(=O)OCc2c1cc1n(c2=O)Cc2cc3cc(O)ccc3nc2-1", "values": [{"measurement": "Potency", "setting": "[1]", "value": "active: 0.0465 µM"}, {"measurement": "Potency", "setting": "[4]", "value": "inconclusive: 27.1 µM [inhibitor, partial curve]"}]}
{"compound": "Clc1ccc(C(Cn2ccnc2)OCc2ccsc2Cl)c(Cl)c1", "note": "(stereo unspecified)", "values": [{"measurement": "Potency", "setting": "[1]", "value": "active: 10.4 µM"}, {"measurement": "Potency", "setting": "[3]", "value": "inconclusive: 13.2 µM [cytotoxic, partial curve]"}, {"measurement": "Potency", "setting": "[4]", "value": "inconclusive: 28.7 µM [inhibitor, single point]"}]}
{"compound": "COc1ccc2cc(-c3nc(-c4ccc(S(C)=O)cc4)[nH]c3-c3ccncc3)ccc2c1", "note": "(stereo unspecified)", "values": [{"measurement": "Potency", "setting": "[7]", "value": "active: 17.1 µM"}]}
{"compound": "COc1cc2nc(N3CCN(C(=O)c4ccco4)CC3)nc(N)c2cc1OC", "values": [{"measurement": "Potency", "setting": "[8]", "value": "active: 26.7 µM"}, {"measurement": "Potency", "setting": "[5]", "value": "inconclusive: 8.35 µM [inhibitor, partial curve]"}, {"measurement": "Potency", "setting": "[4]", "value": "inconclusive: 11.2 µM [inhibitor, single point]"}]}
{"compound": "CC1(C)O[C@@H]2C[C@H]3[C@@H]4CCC5=CC(=O)C=C[C@]5(C)[C@@H]4[C@@H](O)C[C@]3(C)[C@]2(C(=O)CO)O1", "values": [{"measurement": "Potency", "setting": "[2]", "value": "inactive"}]}
{"compound": "NC(=O)c1ccc2[nH]ccc2c1", "values": [{"measurement": "Potency", "setting": "[8]", "value": "inconclusive: 26.7 µM [inhibitor, single point]"}]}
{"compound": "N[C@@H](Cc1cc(I)c(Oc2cc(I)c(O)c(I)c2)c(I)c1)C(=O)O", "values": [{"measurement": "Potency", "setting": "[9]", "value": "inconclusive: 10 µM [inhibitor, partial curve, poor fit]"}]}
{"compound": "O=c1cc(-c2ccc(O)c(O)c2)oc2cc(O)cc(O)c12", "values": [{"measurement": "Potency", "setting": "[9]", "value": "inconclusive: 31.6 µM [inhibitor, partial curve]"}, {"measurement": "Potency", "setting": "[6]", "value": "inactive"}]}
